Reference: doi:10.1101/2021.05.14.444139
Results are given in words; binding and its absence hold for the method and conditions named. In cells and extracts the contact can be indirect. Here binding means that the protein was enriched with, or labelled near, the bait; the list need not be complete.

B1: Large Ribosomal subunit 13 (protein, UniProt P91128 1-207)
chain: MAPRGNQMLGNAHFRKHWHKRIKTWFDQPARKLRRRQNRQAKAVEIAPRPVAGLLRSVVRCPQKRYNTKTRLGRGFSLQELKAAGISQAQARTIGIAVDVRRTNKTAEGLKANADRLKEYKAKLILFPKKASAPKKGDSSAEELKVAAQLRGDVLPLSHTITFDEPRQVTDAERKVEIFRLLRKERADKKYRGKREKRAREAAEENK
B2: Large Ribosomal subunit 28 (protein, UniProt Q21930 1-126)
chain: MSDALVWQVIRNNSAFLRTQRGIGKRFSTEKFNLKKVNSPKYSGLANKHAIDVSAAAKGVVVSTKNEKGRPAKAVTTSTLSKTPVASVRRLAKNAGFNKFNKLAQRRAAAIVRSQVKKAKVQKTDA
B3: Large Ribosomal subunit 33 (protein, UniProt P49180 1-124)
chain: MADTAVARRPSAPTTGRLYVKAIFTGFKRGLRTQSEHTSLLKLEGVFNKEDAGFYAGKRVVYLYKAHNKTLKTGHTVATRTRAIWGKITRPHGNAGAVRAKFHHNIPPSALGKRIRVLLYPSNI
B4: Small Ribosomal Subunit 2 (protein, UniProt P51403 1-272)
chain: MADRGGFQSGFGGRGGGRGGARPAGDRPAGRGGRGGRGGRGGRGGRAGRGGEKETEWTPVTKLGRLVKEKKITTLEEIYLNSLPIKEFEIIDALCSNLKDEVLKISPVQKQTTAGQRTRFKAFVAIGDHAGHVGLGVKCSKEVATAIRGAIVAAKLAVVPVRRGYWGNKIGLPHTVPCKVTGKCASVMVRLIPAPRGTGIVSAPVPKKLLHMAGIEDCYTAAKGSTATLGNFAKATYAALQRTYSYLTPDLWKEEALEKSPYQRHHEYLARN
B5: Small Ribosomal Subunit 3 (protein, UniProt P48152 1-247)
chain: MAANQNVTKKKKAVIGGIFKAELNNFLMKELAEDGYSGVEVRSTPARAEVIIMATRTQNVLGERGRRIKELTSVVQKRFGFEEGSVELYAEKVSNRGLCAVAQCESLRYKLVGGLAVRRACYGVLRFIMESGAQGVEVIVSGKLRGQRAKAMKFVDGLMIHSGHPVNDYIQQAVRHVQLRQGVIGIKVKIMLPYDPRGQNGPRNALPDHVQIVEPQEEVLPKEPHSQHKEEKKDVQVPAAQPVAPVQ
B6: Small Ribosomal Subunit 7 (protein, UniProt Q23312 1-194)
chain: MPEIIGKLLKSDGKVVSEIEKQVSQALIDLETNDDVQSQLKELYIVGVKEVELGNKSAIIIYVPVPQLKAFHKIHPALVRELEKKFGGRDILILAKRRILPKPQRGSKARPQKQKRPRSRTLTAVHDAWLDELVYPAEVVGRRIRVKLDGKKVYKVHLDKSHQTNVGHKIGVFASVYRKLTGKDVTFEFPDPIF
B7: Small Ribosomal Subunit 8 (protein, UniProt P48156 1-208)
chain: MGISRDSWHKRYKTGATQPVPHKKRKFELGRPAANTKIGAHRVRLVRTRGGNEKYRALRLDSGNFSWASEQTTRKTRIVDTMYNATNNELVRTKTLVKGAIISVDAAPFRQWYEAHYALPLARKKNAKLSEEDNAILNKKRSHHTMKKYTERQKTAAVDALLIEQFNTGRLLARISSSPGQVGQANGYILEGKELDFYLRKIRAKKAK
B8: Small Ribosomal Subunit 12 (protein, UniProt P49196 1-140)
chain: MSDAGGDVQVAPAAVAQGPMDKEGALRAVLRAAHHADGLAKGLHETCKALDKREAHFCVLAENCDEPQYVKLVETLCAEHQIPLIKVADKKIIGEYCGLCKYDKEGKARKVVGCSSAVVTNWGNEEQGRAILTDYFASKN
B9: Small Ribosomal Subunit 13 (protein, UniProt P51404 1-151)
chain: MGRMHNPGKGMAKSAIPYRRSVPSWQKMTAEEVQDQIVKMAKKGLRPSQIGVILRDSHGVGQVRRLAGNKIFRILKSKGMAPELPEDLYHLVKKAVAIRKHLERSRKDIDSKYRLILVESRIHRLARYYKTKRQLPPTWKYESGTAASLVS
B10: Small Ribosomal Subunit 17 (protein, UniProt O01692 1-130)
chain: MSRVRTKTVKKASRVLIEKYYTRMTNDFHNNKRVCDEVAIIGSKPLRNKIAGYITHLMRRIERGPVRGISIKLQEEERERRDNYMPEISTVDPSQLTSIKVDTDTSDMLKAAGFNLPNVTVEDQGKNKGK
B11: Small Ribosomal Subunit 27 (protein, UniProt Q9TXP0 1-83)
chain: MPLAVDLLHPEPQREIRCHKLKRLVQHPNSYFMDVKCSGCFKISTVFSHATTVVVCVGCNTVLCQPTRGKAKLTEGCSFRKKQ
B12: Large Ribosomal subunit 6 (protein, UniProt P47991 1-217)
chain: MVGKRNLPVISRNFDLSPGVLRFSASRLRLKKGEKKPKFTKDTSAKLPKLQRNGTKFALGHSKTVTLRKTLTPGTVLIVLAGRHKGKRVVFLKQLPQSGLLLVTGPHKINGFPLRRIGQAFVIATSLKVNVSGVKIPEHINDEYFKRKSTAQKTGKNIFASGKTEYTVSEQRKKDIKTVDAPILAAIKKHPEHKFLFGYLGTRFSLGKNQYPHKMQF

Target: PQN-59 (C. elegans (endogenous in N2 embryos))
Experiment: affinity purification with mass spectrometry

| Binder | binding |
| --- | --- |
| B1 | binds |
| B2 | binds |
| B3 | binds |
| B4 | binds |
| B5 | binds |
| B6 | binds |
| B7 | binds |
| B8 | binds |
| B9 | binds |
| B10 | binds |
| B11 | binds |
| B12 | binds |
